PubChem BioAssay AID1671195 – Yale University – 2021
Test: 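Genes whose knockdown alters LDL uptake in liver cancer cells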 (primary screen). Cell system: human Huh7 hepatoma cells. Reagents: siRNA pool against human genes, 18 nM. Time to read-out: about 2 to 2.5 days of knockdown, then 8 h LDL uptake. Treatment: DiI-labelled LDL at 30 µg/ml for 8 h, in lipoprotein-deficient serum medium. Measured: 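Per-cell DiI-LDL intensity by automated imaging; well means scaled to the plate median and given as a robust z-score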. Scale: robust z-score: higher = more LDL uptake after knockdown. Active means: 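a gene counts as active if at least two replicate z-scores exceed ±2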.
In all, the deposit lists about 22,000 reagents; this is an unselected part. In the full data, about 1,510 (6.9%) were called active. 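Active includes knockdowns raising or lowering LDL uptake; positive z-scores mean more uptake, negative mean less.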

| gene symbol | robust z-score, replicate 1 | robust z-score, replicate 2 | robust z-score, replicate 3 | call |
| --- | --- | --- | --- | --- |
| SLFN14 | -0.686 | -0.504 | -0.482 | inactive |
| GMCL1 | 1.14 | 0.794 | 2.25 | inactive |
| SKA1 | -0.799 | -0.973 | -1 | inactive |
| TLR3 | -0.86 | 0.143 | -1.47 | inactive |
| FAM151B | 0.0595 | -0.237 | -0.484 | inactive |
| PECAM1 | 0.00424 | -1.03 | -0.432 | inactive |
| PNMT | -0.245 | 0.108 | -0.309 | inactive |
| SLCO2A1 | -1.46 | -1.94 | -1.56 | inactive |
| LOC387941 (retired record) | -0.928 | -0.996 | -0.955 | inactive |
| PPM1E | 1.47 | 1.48 | 1.23 | inactive |
| ERCC6 | -1.51 | -1.33 | -1.38 | inactive |
| SLC7A4 | 3.4 | 3.25 | 3.92 | active |
| ADAMTS14 | -0.57 | -0.736 | -0.451 | inactive |
| PLD2 | -0.386 | -0.211 | -0.202 | inactive |
| TMPRSS9 | -0.851 | 0.289 | -1.22 | inactive |
| GSG1 | -0.888 | -1.38 | -1.1 | inactive |
| SPMIP4 | 1.4 | -0.113 | 1.18 | inactive |
| SLC60A1 | -0.0962 | -0.11 | -0.423 | inactive |
| EGLN3 | 0.2 | -0.837 | 0.231 | inactive |
| ALDH16A1 | -0.383 | -0.42 | -0.916 | inactive |
| ADAMTS9 | 0.128 | 0.488 | -0.0487 | inactive |
| ARHGEF4 | 0.584 | 0.572 | 0.752 | inactive |
| BDH2 | -0.261 | -0.252 | -0.182 | inactive |
| FER1L6-AS2 | -0.186 | -0.106 | -0.51 | inactive |
| AMHR2 | -1.02 | -0.571 | -0.176 | inactive |
| RAMAC | 0.665 | 0.808 | 0.226 | inactive |
| SLC26A11 | -1.6 | -1.4 | -1.48 | inactive |
| SLC38A2 | 0.706 | 1.6 | -0.209 | inactive |
| MAP3K15 | -0.222 | 0.381 | 0.937 | inactive |
| ERP27 | -1.15 | -0.493 | 0.141 | inactive |
| HLA-DPB1 | -1.31 | -0.365 | -0.86 | inactive |
| DMRTA2 | 1.74 | 1.51 | 1.39 | inactive |
| LOC440938 (retired record) | -0.0303 | 0.314 | -0.0337 | inactive |
| GLO1 | 1.28 | 0.985 | 1.17 | inactive |
| FUT6 | 0.651 | -0.0354 | 0.0534 | inactive |
| ZNF208 | -1.21 | -0.291 | -0.996 | inactive |
| PACS1 | -1.47 | 1.37 | 0.259 | inactive |
| SNAPIN | 0.349 | -0.787 | -0.0383 | inactive |
| TUSC1 | -0.677 | -0.637 | -0.57 | inactive |
| ATP8A1 | 0.472 | 1.03 | 1.04 | inactive |
| RPL27A | -0.548 | -0.784 | -0.00133 | inactive |
| NFAT5 | 0.721 | 0.118 | 0.0565 | inactive |
| HSD11B1L | 1.04 | -0.649 | 0.0512 | inactive |
| SLC39A10 | 0.0674 | 0.116 | 1.16 | inactive |
| RPS2P32 | -0.136 | -0.164 | -0.22 | inactive |
| HDAC3 | 1.02 | 1.11 | 0.557 | inactive |
| DLST | -1.67 | -0.00347 | -1.56 | inactive |
| PRDM13 | 1.41 | 0.879 | 1.41 | inactive |
| CALHM4 | 1.24 | 0.761 | 1.31 | inactive |
| LOC387777 (retired record) | 0.362 | 0.845 | 0.561 | inactive |
| GALNT14 | 0.0334 | 0.439 | -0.119 | inactive |
| RASL12 | 0.965 | -1.08 | -1.06 | inactive |
| LY6G5B | 0.762 | 1.63 | 1.13 | inactive |
| BMS1P20 | 0.0239 | 0.832 | 0.971 | inactive |

Called active, among the entries above:
| gene symbol | robust z-score, replicate 1 | robust z-score, replicate 2 | robust z-score, replicate 3 | call |
| --- | --- | --- | --- | --- |
| SLC7A4 | 3.4 | 3.25 | 3.92 | active |

The list goes on:
| gene symbol | robust z-score, replicate 1 | robust z-score, replicate 2 | robust z-score, replicate 3 | call |
| --- | --- | --- | --- | --- |
| ADRM1 | 0.926 | 0.691 | 0.588 | inactive |
| CYSLTR1 | -2.49 | 2.88 | 0.0766 | inactive |
| HAUS3 | 1.75 | 1.44 | 1.49 | inactive |
| PCDHGA4 | -0.671 | -0.759 | -0.539 | inactive |
| TMEM200A | 5.56 | 2.06 | 3.42 | active |
| LOC389834 | 1.16 | 1.12 | 0.55 | inactive |
| LILRB3 | 1 | 0.798 | 0.286 | inactive |
| PLA2G4C | -0.755 | -2.19 | -0.623 | inactive |
| BROX | -0.424 | -0.00745 | -0.622 | inactive |
| ADGRE3 | 0.478 | 0.144 | -0.3 | inactive |
| FANCD2OS | 0.295 | 1.22 | 1.77 | inactive |
| RPL31P50 | 2.68 | 1.15 | 1.22 | inactive |
| SLC46A1 | -0.0271 | 0.392 | -1.37 | inactive |
| BEX3 | -0.44 | 0.393 | -1.03 | inactive |
| PARM1 | 1.44 | 2.52 | 0.423 | inactive |
| SDR42E1 | 1.09 | -0.216 | 0.809 | inactive |
| RPS26P40 | -1.99 | -2.11 | -2.02 | active |
| RPA3 | 0.216 | 0.826 | -0.0423 | inactive |
| RAD1 | -0.599 | -1.31 | -1.33 | inactive |
| NR1D2 | -0.628 | -0.0768 | 0.215 | inactive |
| PCDH20 | -0.336 | -0.071 | -0.0822 | inactive |
| ARID1A | -1.02 | -0.215 | -0.556 | inactive |
| ZRANB3 | 0.789 | 0.83 | 0.978 | inactive |
| CYP3A7 | -0.093 | -0.242 | -0.0315 | inactive |
| OR1A2 | 1.03 | -0.26 | 2 | inactive |
| CARS2 | 2.91 | 1.97 | 3.06 | active |
| TSPAN16 | 0.527 | 0.863 | 0.759 | inactive |
| PHC3 | 0.686 | 0.0384 | 0.55 | inactive |
| ONECUT2 | -1.98 | -2.1 | -2.38 | active |
| MAGEH1 | 0.32 | 0.451 | 0.74 | inactive |
| TCAF1 | 2.33 | 1.92 | -0.298 | active |
| USB1 | -1.17 | -1.24 | -1.24 | inactive |
| CYP27B1 | 2.71 | 2.3 | 1.32 | active |
